# Numbering of substitutions follows the chain as printed. Names may count otherwise.
# B1: Rap80 (WT): His6-tagged human Rap80 tandem UIM peptide, linker REVNSQE, fluorescein-labeled on C121; sequence in Table 1 (protein)
# peptide: PSSHHHHHHSSGLVPRGSHMTEEEQFALALKMSEQEAREVNSQEEEEEELLRKAIAESLNSCRPS
# B2: Rap80 S101A: Rap80 tUIM peptide, linker REVNAQE (protein)
# peptide: B1 peptide with S42A
# Test: CD measurements of helical content of tUIM peptides
# Format: physicochemical
# Conditions: CD at 5° C.
# Description: Measurements of 3 samples were collected and are shown in FIG. 2D: (1) 153 μM Rap80 tUIM alone, (2) 153 μM K63-Ub2 alone, and (3) a mixture of 153 μM Rap80 tUIM with 153 μM K63-Ub2. The contribution of Rap80 tUIM to spectrum (3) was sought, so that the helical content of the bound tUIM could be estimated. […] Therefore, the difference between spectrum (3) and spectrum (2) will give the contribution from Rap80 tUIM to the total CD spectrum of the Rap80-K63-Ub2 mixture. (A) The spectrum of unbound Rap80 [spectrum (1)] is shown here as triangles. The contribution of Rap80 to spectrum (3) was calculated as (3)−(2), and is shown here as squares. Because the mixture of Rap80 with K63-Ub2 is not at saturating concentrations, bound and unbound Rap80 are both present in the solution. The observed helical fraction (Hmix) for this complex mixture can be described by:
# Where Fbound and Funbound are the fractions of the bound and unbound forms of Rap80 present in the mixture, respectively, and Hbound and Hunbound are the helical contents of the bound and unbound forms of Rap80, respectively. […] (B) Shown here is a summary of the secondary structure predictions from two methods and the corresponding Hbound values calculated as described above. […]
# CD Measurements. […] Peptide concentrations were independently determined before each CD reading from absorbance measurements (fluorescein) of samples in the CD cuvette.
row,Molecule,θ222 nm
1,B1,19245 deg cm^2 dmol^−1
2,B2,20383 deg cm^2 dmol^−1

# — patent US20110250613A1, “Arrayed Multiple Ubiquitin Binding Domains as Linkage-specific Polyubiquitin Affinity Reagents” (THE JOHNS HOPKINS UNIVERSITY, priority 2009, published 2011)
